The values below come from paper PMC3378952, “Plasmodium subtilisin-like protease 1 (SUB1): Insights into the active-site structure, specificity and function of a pan-malaria drug target” (International Journal for Parasitology, 2012).

Results are given in words; binding and its absence hold for the method and conditions named. Some entries that bind do so weakly or less than the wild type.

The test has as its target T1, recombinant Plasmodium falciparum subtilisin-like protease 1 (rPfSUB1), p54/p47 protease species (Plasmodium falciparum) (UniProt O61142).
T1 sequence: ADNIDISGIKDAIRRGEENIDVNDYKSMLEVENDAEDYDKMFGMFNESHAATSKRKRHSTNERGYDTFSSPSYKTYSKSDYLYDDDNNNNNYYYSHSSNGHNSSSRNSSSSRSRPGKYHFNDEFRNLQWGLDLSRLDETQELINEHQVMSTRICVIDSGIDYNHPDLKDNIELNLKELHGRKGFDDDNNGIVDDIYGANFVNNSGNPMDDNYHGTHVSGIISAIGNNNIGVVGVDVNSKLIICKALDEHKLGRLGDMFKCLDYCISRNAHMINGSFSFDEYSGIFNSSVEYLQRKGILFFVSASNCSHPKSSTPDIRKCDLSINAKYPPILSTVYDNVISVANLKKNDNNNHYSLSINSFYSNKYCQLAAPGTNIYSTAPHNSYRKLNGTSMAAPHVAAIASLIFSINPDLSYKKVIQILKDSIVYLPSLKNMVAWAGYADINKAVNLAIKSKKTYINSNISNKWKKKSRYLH
Description: co-purification (Blue Sepharose and Ni-NTA chromatography, SDS-PAGE); recombinant SUB1 secreted by baculovirus-infected insect cells, purified from culture supernatant on Blue Sepharose CL-6B and Ni-NTA agarose; prodomain seen beside the protease species on Coomassie-stained gels of the purified protein.

B1: PfSUB1 prodomain (PD) released by autocatalytic cleavage of rPfSUB1 (domain or fragment)
chain: KEVRSEENGKIQDDAKKIVSELRFLEKVEDVIEKSNIGGNEVDADENSFNPDTEVPIEEIEEIKMRELKDVKEEKNKNDNHNNNNNNNNISSSSSSSSNTFGEEKEEVSKKKKKLRLIVSENHATTPSFFQESLLEPDVLSFLESKGNLSNLKNINSMIIELKEDTTDDELISYIKILEEKGALIESDKLVS
Regarding B1, the binding result is “binds”.
